This is an account of results in patent US20250115886A1.

No constants are given. Whether binding was seen depends on the method and setting. Some binding calls cover weakened binding; strength is not graded here.

The target in this experiment is SZ1-(RGG)3-GFP scaffold (Caenorhabditis elegans). Put plainly: fluorescence microscopy of client recruitment to scaffold condensates in yeast.

B1: mScarlet-SZ2 (protein, not shown: large carriers)
chain: MARNAYLRKKIARLKKDNLQLERDEQNLEKIIANLRDEIARLENEVASHEQ
Regarding B1, the binding entry is “binds”.
